Drawing on paper PMC10344929, “Crosstalk between regulatory elements in disordered TRPV4 N-terminus modulates lipid-dependent channel activity” (Nature Communications, 2023), this text covers binding for three molecules.

Holding throughout (assay): condition: 2 mg/mL loaded (SEC-MALS); 2-3 mg/mL (analytical SEC); SEC + SEC-MALS; Superdex200 Increase 10/300, 20 mM Tris pH 7, 300 mM NaCl, 1 mM DTT; SEC-MALS: 200 uL at 2 mg/mL loaded; analytical SEC: 250 uL at 2-3 mg/mL, 4 °C; both purified
Assay [1] concerns the target Gallus gallus TRPV4 N-terminal domain (residues 2-382) (Gallus gallus).
Assay [2] addresses Gallus gallus TRPV4 isolated ankyrin repeat domain (residues 135-382) (Gallus gallus).
Assay [3] addresses Gallus gallus TRPV4 isolated intrinsically disordered region (residues 2-134) (Gallus gallus).

These are yes or no findings as the source states them, for the method shown.

As to “Gallus gallus TRPV4 N-terminal domain (residues 2-382) (from UniProt A0A1D5PXA5 2-382) (domain or fragment)”, the binding entry in assay [1] is on record as “no binding”.

“Gallus gallus TRPV4 isolated ankyrin repeat domain (residues 135-382) (from UniProt A0A1D5PXA5 135-382) (domain or fragment)”: in assay [2], the binding entry is listed as “no binding”.

B1: Gallus gallus TRPV4 isolated intrinsically disordered region (residues 2-134) (domain or fragment, UniProt A0A1D5PXA5 2-134, looked up)
chain: ADPEDPRDAGDVLGDDSFPLSSLANLFEVEDTPSPAEPSRGPPGAVDGKQNLRMKFHGAFRKGPPKPMELLESTIYESSVVPAPKKAPMDSLFDYGTYRQHPSENKRWRRRVVEKPVAGTKGPAPNPPPILKV
notes: TRPV4, Gallus gallus, N-terminal intrinsically disordered region, residues 2-134; Made from the NTD vector by Gibson deletion; also called IDR; TRPV4 IDR; source: E. coli BL21-Gold(DE3), purified (Ni-NTA, Ulp-1 cleavage, reverse Ni-NTA, SEC); not shown: His6SUMO, N-terminal, cleaved
As for B1, in assay [3], the binding entry is recorded as “no binding”.
